The text below walks through data of patent US20240344241A1, “PROTEINACEOUS MOLECULES AND USES THEREFOR” (THE UNIVERSITY OF QUEENSLAND, priority 2021, published 2024).

Bridge positions count the residues as written; N and C are the ends. Peptide text beside a SMILES is read from it.

This data set is described as follows: Ex vivo extracorporeal membrane oxygenation (ECMO) model, circuit parameters. Set-up: species or system human. The note with it: over the 6 h time course; MCoFx7 single dose 20 μM, heparin 350 UI plus top-ups.

`CC[C@H](C)[C@@H]1NC(=O)CNC(=O)CNC(=O)[C@H](CC(=O)O)NC(=O)[C@H](CO)NC(=O)CNC(=O)[C@H](CO)NC(=O)CNC(=O)[C@@H]2CSSC[C@@H]3NC(=O)[C@H](CC(=O)O)NC(=O)[C@H](CO)NC(=O)[C@H](CC(=O)O)NC(=O)[C@H](CCCNC(=N)N)NC(=O)[C@H](CCCNC(=N)N)NC(=O)[C@@H]4CSSC[C@H](NC(=O)[C@H]([C@@H](C)CC)NC(=O)[C@H](CSSC[C@H](NC1=O)C(=O)N1CCC[C@H]1C(=O)N[C@@H](CCCNC(=N)N)C(=O)N[C@@H]([C@@H](C)CC)C(=O)NCC(=O)N[C@@H](CCCNC(=N)N)C(=O)N[C@@H](CC(C)C)C(=O)N4)NC(=O)[C@H](C)NC(=O)CNC(=O)[C@@H]1CCCN1C3=O)C(=O)N[C@@H](CCCNC(=N)N)C(=O)N[C@@H](C)C(=O)N[C@@H]([C@@H](C)O)C(=O)N[C@@H](CCCNC(=N)N)C(=O)N[C@@H](Cc1ccccc1)C(=O)N2` [Cyclic MCoFx7] (cyclo(ACICRATRFCGSGSDGGICPRIGRLCRRDSDCPG); disulfide 2-19, 4-26, 10-32): the “delta oxygenator P” value is recorded as approximately 23 mmHg.

As to heparin [reference compound], the “delta oxygenator P” value was approximately 23 mmHg.
